“And” between values parts separate entries of the source, which are not always exact repeats. Equal values may be shown once. The list shows a part of the results. Each value is one well over the wells without odorant, computed here; the data are noisy.

Among the test systems are OR52B2 clone 1210; OR52B4 clone 1508; OR52D1 clone 1164; OR52E1 clone 1113; OR52E5 P234L clone 1124; OR52E6 clone 1196; OR52E8 clone 1154; OR52H1 clone 1702; OR52I1 clone 1521; OR52I2 T132M clone 1324; OR52K1 clone 1163; OR52K2 clone 1211; OR52L2 R169W clone 1117; OR52M1 clone 1143; OR52N1 clone 1191; OR52N2 M228T clone 1569.
Holding throughout (assay): odorant receptor activation (CRE luciferase / Renilla) (fold of no-odor wells); higher = more activation
What all share (settings): 100 µM

Experiment [1] has as its system OR52B6 T36A/L90H/A146T/H149R/V267I clone 1306.
Experiment [2] has as its system OR52E2 H174R/R264C clone 1184.
Experiment [3] has as its system OR52E4 V176I/R184M/R228H clone 1123.
Experiment [4] relates to OR52L1 D73N/C125R/C146R/K168T/W282R clone 1116.

For the compound `CCCC(=O)O` [butyric acid], the odorant receptor activation in the experiment with OR52B2 clone 1210 turned out to be 0.981; in the experiment with OR52B4 clone 1508, 1.19; in [1], 0.976; in the experiment on OR52D1 clone 1164, 0.82; with OR52E1 clone 1113 it was 0.938; in experiment [2], 0.985. For the same compound, the odorant receptor activation in experiment [3] stood at 1.11; in the experiment with OR52E5 P234L clone 1124 it was 1.16; in the experiment with OR52E6 clone 1196, 1.06; with OR52E8 clone 1154, 1.03; in the experiment on OR52H1 clone 1702, 1.34; in the experiment on OR52I1 clone 1521 it was 0.773. The odorant receptor activation in the experiment on OR52I2 T132M clone 1324 was 1.11; in the experiment on OR52K1 clone 1163, 0.938; in the experiment with OR52K2 clone 1211 it was 0.868; in experiment [4] it was 1.3; with OR52L2 R169W clone 1117 it was 1.18; with OR52M1 clone 1143 it was 0.908. The odorant receptor activation turned out to be 1.1 in the experiment with OR52N1 clone 1191 and 0.731 in the experiment on OR52N2 M228T clone 1569.

Consider `CC1CCC(C(C)C)C(O)C1` (single isomer, unassigned; (+)) [(+)-menthol], for which the odorant receptor activation in the experiment on OR52B2 clone 1210 came out at 1.06; with OR52B4 clone 1508, 1.14; in experiment [1], 0.882; in the experiment on OR52D1 clone 1164 it was 1.1; with OR52E1 clone 1113, 8.15; in experiment [2] it was 0.695. Also, the odorant receptor activation turned out to be 0.887 in [3]; 0.769 in the experiment on OR52E5 P234L clone 1124; 1.17 in the experiment with OR52E6 clone 1196; 1.44 with OR52E8 clone 1154; 0.756 in the experiment on OR52H1 clone 1702; 0.914 in the experiment on OR52I1 clone 1521. For the same compound, the odorant receptor activation in the experiment with OR52I2 T132M clone 1324 is 1.05; with OR52K1 clone 1163, 1.05; with OR52K2 clone 1211, 0.944; in experiment [4], 26.7; in the experiment on OR52L2 R169W clone 1117 it was 21.2; with OR52M1 clone 1143, 1.25. Besides, the odorant receptor activation with OR52N1 clone 1191 stood at 1.69; in the experiment with OR52N2 M228T clone 1569, 0.685.

Turning to `CC1CCC(C(C)C)C(O)C1` (single isomer, unassigned; (-)) [(-)-menthol], the odorant receptor activation in the experiment with OR52B2 clone 1210 was 0.972; in the experiment with OR52B4 clone 1508, 4.26; in experiment [1], 0.809; in the experiment on OR52D1 clone 1164 it was 1.09; in the experiment on OR52E1 clone 1113 it was 10.4; in experiment [2], 0.733. For the same compound, the odorant receptor activation was 1.08 in [3]; 0.715 in the experiment with OR52E5 P234L clone 1124; 1.46 in the experiment on OR52E6 clone 1196; 1.08 in the experiment on OR52E8 clone 1154; 0.866 in the experiment on OR52H1 clone 1702; 2.33 in the experiment on OR52I1 clone 1521. The odorant receptor activation with OR52I2 T132M clone 1324 is 0.999; in the experiment on OR52K1 clone 1163 it was 1.16; in the experiment on OR52K2 clone 1211 it was 0.653; in experiment [4], 25.5; with OR52L2 R169W clone 1117, 19.3; with OR52M1 clone 1143 it was 1.01. The odorant receptor activation stood at 1.65 in the experiment on OR52N1 clone 1191 and 0.773 in the experiment with OR52N2 M228T clone 1569.

On to `CC(=O)OC1CC2CCC1(C)C2(C)C` (stereo not given) [isobornyl acetate], for which the odorant receptor activation was 1.2 in the experiment on OR52B2 clone 1210; 0.453 and 1.02 with OR52B4 clone 1508; 1.03 and 0.975 in experiment [1]; 0.673 with OR52D1 clone 1164; 0.795 in the experiment on OR52E1 clone 1113; 1.07 in experiment [2]. Also, the odorant receptor activation in experiment [3] was 0.805; in the experiment on OR52E5 P234L clone 1124 it was 0.736; with OR52E6 clone 1196 it was 1.26; in the experiment with OR52E8 clone 1154, 0.917; in the experiment on OR52H1 clone 1702, 1.17; in the experiment on OR52I1 clone 1521, 1.16 and 1.28. In addition, the odorant receptor activation was 1.14 and 0.784 in the experiment with OR52I2 T132M clone 1324; 1.26 in the experiment on OR52K1 clone 1163; 1.02 with OR52K2 clone 1211; 0.71 in [4]; 1.71 in the experiment with OR52L2 R169W clone 1117; 0.901 with OR52M1 clone 1143. The odorant receptor activation is 0.978 in the experiment on OR52N1 clone 1191 and 0.939 in the experiment on OR52N2 M228T clone 1569.

For `COc1cc(C=O)ccc1O` [vanillin], the odorant receptor activation in the experiment with OR52B2 clone 1210 came to 0.914; in the experiment on OR52B4 clone 1508, 1.08; in experiment [1], 1.09; with OR52D1 clone 1164, 1.44; with OR52E1 clone 1113, 0.658; in experiment [2], 0.871. In addition, the odorant receptor activation in experiment [3] turned out to be 0.984; with OR52E5 P234L clone 1124, 0.95; with OR52E6 clone 1196 it was 0.904; with OR52E8 clone 1154 it was 0.958; in the experiment on OR52H1 clone 1702 it was 1.21; in the experiment on OR52I1 clone 1521, 0.791. The odorant receptor activation in the experiment on OR52I2 T132M clone 1324 is 0.866; in the experiment on OR52K1 clone 1163, 1.06; in the experiment on OR52K2 clone 1211, 1.1; in experiment [4], 0.93; in the experiment with OR52L2 R169W clone 1117 it was 0.754; in the experiment with OR52M1 clone 1143, 0.951. Moreover, the values for the odorant receptor activation in the experiment with OR52N1 clone 1191 and in the experiment on OR52N2 M228T clone 1569 were 0.902 and 0.819, respectively.

As for `CC(C)C(=O)O` [isobutyric acid], the odorant receptor activation was 1.25 in the experiment with OR52B2 clone 1210; 0.5 and 1.03 with OR52B4 clone 1508; 1.03 and 0.986 in experiment [1]; 0.932 in the experiment on OR52D1 clone 1164; 0.617 in the experiment on OR52E1 clone 1113; 0.894 in experiment [2]. The odorant receptor activation in experiment [3] was 0.908; with OR52E5 P234L clone 1124, 0.86; with OR52E6 clone 1196 it was 1.37; with OR52E8 clone 1154 it was 1.14; in the experiment on OR52H1 clone 1702, 1.1; in the experiment with OR52I1 clone 1521, 1.11 and 1.07. For the same compound, the odorant receptor activation was 1.05 and 0.768 with OR52I2 T132M clone 1324; 0.928 with OR52K1 clone 1163; 0.751 with OR52K2 clone 1211; 0.615 in [4]; 1.32 in the experiment with OR52L2 R169W clone 1117; 0.825 in the experiment with OR52M1 clone 1143. Besides, the odorant receptor activation in the experiment on OR52N1 clone 1191 is 0.969; with OR52N2 M228T clone 1569 it was 0.92.

The record behind these values is the odorant receptor screen of Mainland et al. (2015).
